## Results of single-concentration screens

Amino acid sequences for entries named in this document (tags omitted).
UniProt I6X8D2, whole entry: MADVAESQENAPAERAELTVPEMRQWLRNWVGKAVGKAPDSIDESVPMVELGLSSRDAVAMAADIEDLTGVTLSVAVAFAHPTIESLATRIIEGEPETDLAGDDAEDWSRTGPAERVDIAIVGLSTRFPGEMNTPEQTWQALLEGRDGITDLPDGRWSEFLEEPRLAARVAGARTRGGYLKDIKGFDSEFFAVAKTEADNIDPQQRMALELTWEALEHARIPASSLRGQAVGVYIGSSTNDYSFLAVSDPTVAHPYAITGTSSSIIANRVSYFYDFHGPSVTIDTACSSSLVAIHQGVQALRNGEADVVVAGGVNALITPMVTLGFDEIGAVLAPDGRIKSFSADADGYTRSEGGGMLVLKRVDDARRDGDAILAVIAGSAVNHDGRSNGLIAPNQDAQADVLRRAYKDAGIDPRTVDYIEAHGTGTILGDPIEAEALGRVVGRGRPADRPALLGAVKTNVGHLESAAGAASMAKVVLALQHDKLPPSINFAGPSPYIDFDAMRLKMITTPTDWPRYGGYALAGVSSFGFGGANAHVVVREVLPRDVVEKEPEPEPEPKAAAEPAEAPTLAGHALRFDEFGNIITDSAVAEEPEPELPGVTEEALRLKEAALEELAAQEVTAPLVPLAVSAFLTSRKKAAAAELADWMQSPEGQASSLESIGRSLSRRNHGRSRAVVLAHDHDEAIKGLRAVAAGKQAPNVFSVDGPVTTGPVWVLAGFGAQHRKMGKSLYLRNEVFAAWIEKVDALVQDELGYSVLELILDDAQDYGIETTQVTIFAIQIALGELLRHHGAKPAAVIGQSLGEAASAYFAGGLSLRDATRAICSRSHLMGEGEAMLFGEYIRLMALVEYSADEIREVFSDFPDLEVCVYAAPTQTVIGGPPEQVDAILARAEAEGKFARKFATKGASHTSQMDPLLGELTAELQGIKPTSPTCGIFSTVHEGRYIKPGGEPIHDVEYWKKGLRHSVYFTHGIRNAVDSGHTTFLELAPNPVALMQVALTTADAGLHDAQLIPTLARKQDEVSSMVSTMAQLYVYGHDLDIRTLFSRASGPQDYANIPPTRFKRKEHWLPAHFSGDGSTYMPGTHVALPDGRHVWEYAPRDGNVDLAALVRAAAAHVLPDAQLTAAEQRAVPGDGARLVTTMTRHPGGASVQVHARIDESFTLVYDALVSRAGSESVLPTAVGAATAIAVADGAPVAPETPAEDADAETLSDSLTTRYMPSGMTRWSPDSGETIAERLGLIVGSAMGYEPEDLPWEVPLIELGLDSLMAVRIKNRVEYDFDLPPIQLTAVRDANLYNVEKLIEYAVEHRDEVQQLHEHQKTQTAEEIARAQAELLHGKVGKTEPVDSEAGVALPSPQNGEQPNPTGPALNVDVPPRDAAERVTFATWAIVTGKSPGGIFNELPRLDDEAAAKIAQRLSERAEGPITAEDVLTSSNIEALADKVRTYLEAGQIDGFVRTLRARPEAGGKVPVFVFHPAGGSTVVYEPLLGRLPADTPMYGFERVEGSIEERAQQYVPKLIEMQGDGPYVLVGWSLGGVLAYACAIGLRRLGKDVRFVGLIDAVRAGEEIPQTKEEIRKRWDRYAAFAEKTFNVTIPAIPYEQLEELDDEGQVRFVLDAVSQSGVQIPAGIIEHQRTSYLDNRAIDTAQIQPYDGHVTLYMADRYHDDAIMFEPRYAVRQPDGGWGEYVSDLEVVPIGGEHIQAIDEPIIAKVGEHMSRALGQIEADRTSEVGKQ

From ChEMBL document CHEMBL3988442, “University of Dundee, Small-Polar-MMV Screening Library” (2021).

Each number is a percent effect as filed. The controls that fix the scale are not given in the record; negative values are as filed. This is an unselected part of the compounds tested.

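Enzyme assay of the thioesterase domain of polyketide synthase 13; the read-out is not stated. Target: Polyketide synthase Pks13, Mycobacterium tuberculosis (UniProt I6X8D2). Tested at 30 µM. The record gives no direction; the compounds picked for IC50 retests had high values, so higher reads as stronger inhibition. Of about 67,000 compounds tested this way, about 300 (0.46%) reached 50% or more in at least one test.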

| compound | Percent Effect |
|---|---|
| `COCCC(=O)N1Cc2cnc(Cc3ccc(OC)cc3)nc2C1` | -12.53% |
| `Cc1cccc2c(=O)n(C(C)Cc3cccnc3)cnc12` (configuration not stated) | -2.233% |
| `Cc1cccc(=O)n1CCC(=O)N(C)Cc1cccc2ncccc12` | -26.8% |
| `O=C(c1cccs1)N1CCc2ncc(Cn3cncn3)n2CC1` | -11.49% |
| `Cc1oncc1C(=O)N1CC[C@H]2[C@@H]1CCC(=O)N2CC1CCOCC1` | -0.2868% |
| `CCOCc1nc2c(c(N(C)Cc3snnc3C)n1)CCNCC2` | -7.853% |
| `Cc1cc(C)nc(N2CCC(OCCN3CCCCC3)C2)n1` (configuration not stated) | 3.962% |
| `c1cnc(NCc2cncc3c2CCN(Cc2ccsc2)C3)nc1` | -13.1% |
| `Cc1cnn(CCCNC2Cc3ccccc3C2)c1` | -7.028% |
| `CCn1cnc2c(cnn2-c2cccc(C)c2C)c1=O` | 11.98% |
| `CCc1nc(NC(=O)N(C)Cc2ccoc2)nn1C` | -10.06% |
| `CC(C)c1ccc(OCC(=O)N2CCOCC2c2ncon2)cc1` (configuration not stated) | -1.453% |
| `CCCn1cnnc1CNCc1c[nH]nc1-c1ccc(F)cc1` | -8.864% |
| `c1ccc(OCc2nnn3c2CN(c2ncccn2)CCC3)nc1` | 16.54% |
| `Cc1noc(C)c1S(=O)(=O)N1CCC(Oc2cnccn2)CC1` | -1.803% |
| `CCc1ncnc2c1CCN(Cc1cccs1)CC2` | -36.22% |
| `CCOC(=O)c1nc(CC(=O)Nc2ccccc2)no1` | -13.03% |
| `CC1(Cc2ccc3c(c2)OCO3)CCCN(S(=O)(=O)N2CCCC2)C1` (configuration not stated) | 9.644% |
| `Cc1c(C(=O)NC2=NCCS2)cnn1-c1ccc(Cl)cc1` | 25.05% |
| `CN(Cc1ccsc1)C(=O)c1cccc(NS(C)(=O)=O)c1` | -7.588% |
| `COCCC(=O)NC1CCN(CC2(c3cccc(F)c3)CCCC2)CC1` | 3.78% |
| `Cc1cc(C)n2c(CNCc3ccc(OC(F)F)cc3)cnc2n1` | 1.471% |
| `CNC(=O)C1CN(C(C)C)CCN1c1nc(C)cc(C)n1` (configuration not stated) | -0.4108% |
| `CCOc1ccc(C(=O)N2Cc3cnc(CC(C)C)nc3C2)o1` | -23.35% |
| `CC(C)(C)CN[C@@H]1CO[C@H](CNC(=O)c2cccs2)[C@H]1O` | -24.24% |
| `Cc1cnn(C2CN(CC(O)Cn3cccn3)C2)c1` (configuration not stated) | -3.117% |
| `O=C(c1ncoc1C1CCCO1)N1CCC2(CCCCC2)CC1` (configuration not stated) | -32.53% |
| `CN(CCCNc1cc(N2CCCC2CO)ncn1)S(C)(=O)=O` (configuration not stated) | -3.399% |
| `CNc1ccccc1C(=O)N(C)CCc1ccccc1` | -34.34% |
| `CC(=O)N1CCCN(C(=O)c2ccc(=O)n(C)c2)c2ccccc21` | -9.825% |
| `CN1CCN(C[C@@H]2OC[C@H]3CN(Cc4ccncc4)CC[C@H]32)CC1` | -15.18% |
| `Cn1cc(CN2CCCC(Cn3cc(CCCO)nn3)C2)cn1` (configuration not stated) | -14.88% |
| `Cc1nn(C)c2nc(-c3ccccn3)nc(NC[C@@H]3CCCO3)c12` | 11.97% |
| `CO[C@@H]1CCC[C@@H](NC(=O)C(C)(C)c2cccc(F)c2)[C@H]1O` | 14.93% |
| `CC(C)NC(=O)N1CC[C@H]2N(C)CC[C@@]2(C(=O)Nc2cccnc2)CC1` | -9.924% |
| `O=C(CN1CCNCC1)N1CC[C@@H](c2ccc3ccccc3c2)[C@H](O)C1` | -14.82% |
| `CC(C)NC(=O)N1CCCC2(CCCCN2)C1` (configuration not stated) | -3.349% |
| `Cc1nn(C)c2nc(N3CCCCC3c3nccs3)sc12` (configuration not stated) | 6.68% |
| `CC(C)n1nccc1CN1Cc2nccn2CC1c1ccccc1` (configuration not stated) | -6.877% |
| `O=C1NC2(CCN(CCO)CC2)CC1c1ccccc1` (configuration not stated) | -33.57% |
| `Cc1ccc2nc(NCCN3CCOCC3)n(C)c(=O)c2c1` | -29.53% |
| `Cc1ccc(N2C[C@@H]3CN(Cc4ccsc4)CCO[C@@H]3C2)nn1` | -27.2% |
| `Fc1cnc(N2C[C@@H]3C[C@@H](c4nc(C5CC5)cs4)O[C@@H]3C2)nc1` | 8.922% |
| `Cc1nc(Cn2c3c(ccc2=O)CC(NC(C)C)CC3)cs1` (configuration not stated) | -17.38% |
| `CC(C)n1cc(C(=O)NCCc2cn3ccsc3n2)cn1` | -12.65% |
| `COc1ccc(C(=O)N2CCC(Nc3cccnn3)CC2)c(F)c1` | -20.67% |
| `CCc1[nH]c2c(CNc3nc(C)cc(NC)n3)cc(C)cc2c1C` | 146.1% |
| `COCc1ccc(C(=O)N2CC[C@H](O)[C@@H](n3ccnc3)CC2)cc1` | -12.46% |
| `COCC1CCN(C(C(=O)O)c2c(F)cccc2OC(C)C)CC1` (configuration not stated) | -5.902% |
| `CN1[C@H](CN2CCCC2)C[C@@H]2CN(C(=O)c3cnccn3)CC[C@@H]21` | 17% |
| `COC1(CNS(=O)(=O)c2ccccc2Cl)CCSC1` (configuration not stated) | -39.05% |
| `O=C(CCc1cscn1)N1CCC(C(=O)O)(c2ccccc2)CC1` | -7.12% |
| `CC(=O)N(Cc1ccsc1)c1ccccc1` | -18.1% |
| `COc1ccccc1CC(=O)N1CCC(NCc2ccc(C)o2)CC1` | -19.08% |
| `O=C(c1ccccc1F)N1CC(c2nc(-c3ccc[nH]c3=O)no2)C1` | -12.65% |
| `COc1ccc(NC(=O)C2OC(c3cccs3)=NN2C(C)=O)cc1` (configuration not stated) | 1.554% |
| `Cn1ncc2c1CCCC2NCc1ccc(OCc2cccnc2)cc1` (configuration not stated) | -1.947% |
| `Cn1cnnc1Sc1ccc(NC(=O)C2CC2)cc1Cl` | -7.092% |
| `CC(C)c1sc(Cl)nc1C(=O)N1CCN(c2ccccn2)CC1` | -4.641% |
| `COc1cccc(COCC(=O)NC(C(N)=O)c2ccccc2F)c1` (configuration not stated) | 26.88% |
| `O=C1CC[C@H]2[C@H](CCN2Cc2ccccn2)N1CC1CCOCC1` | -3.498% |
| `CSc1nnc(CNC(=O)Nc2ccccc2F)n1C` | 3.808% |
| `Cc1csc(NC(=O)[C@@H]2C[C@H]3[C@H](CCN3S(C)(=O)=O)O2)n1` | 12.71% |
| `NC(=O)CN(CC(=O)NCc1cccc(Cl)c1)C1CCCC1` | -11.34% |
| `CCc1nc(C)c(C(=O)N[C@@H]2c3ccccc3C[C@@H]2O)o1` | -34.71% |
| `CC(C)c1nccn1CCC(=O)NCC(C)(O)c1ccco1` (configuration not stated) | -46.24% |
| `c1nc(NCc2cc3n(n2)CCN(C2CCCCC2)C3)c2nc[nH]c2n1` | -15.6% |
| `CCN(C)c1ncnc2c1CCN(C(=O)c1ccoc1C)CC2` | -0.1727% |
| `N#Cc1cccc(N2CC3(CCN(C(=O)NC4CC4)C3)CC2=O)c1` (configuration not stated) | -12.39% |
| `Cc1nnc2n1CCN(C(=O)c1ccn(-c3cccc(F)c3)n1)C2` | 0.8224% |
| `CN1CC2(CCN(C(=O)c3ccc4nccnc4c3)CC2)CC1=O` | -26.38% |
| `CN(Cc1cccnc1)[C@@H]1CN(Cc2nccn2C)[C@@H]2CCCO[C@H]12` | -9.943% |
| `CSc1ccc(NC(=O)COCc2ccccc2)nc1` | 2.476% |
| `OCCOc1cc(F)ccc1NCc1nc(-c2cccs2)no1` | 13.52% |

Repeated from the top, 8 entries:

COCCC(=O)N1Cc2cnc(Cc3ccc(OC)cc3)nc2C1 read -12.53%.
Cc1cccc2c(=O)n(C(C)Cc3cccnc3)cnc12 (configuration not stated) read -2.233%.
Cc1cccc(=O)n1CCC(=O)N(C)Cc1cccc2ncccc12 read -26.8%.
O=C(c1cccs1)N1CCc2ncc(Cn3cncn3)n2CC1 read -11.49%.
Cc1oncc1C(=O)N1CC[C@H]2[C@@H]1CCC(=O)N2CC1CCOCC1 read -0.2868%.
CCOCc1nc2c(c(N(C)Cc3snnc3C)n1)CCNCC2 read -7.853%.
Cc1cc(C)nc(N2CCC(OCCN3CCCCC3)C2)n1 (configuration not stated) read 3.962%.
c1cnc(NCc2cncc3c2CCN(Cc2ccsc2)C3)nc1 read -13.1%.